These are yes or no findings as the source states them, for the method shown. In cells and extracts the contact can be indirect. Some binding calls cover weakened binding; strength is not graded here.
Target: T1, GAGA factor (GAF) (Drosophila (endogenous in embryos)) (UniProt Q08605)
T1 sequence: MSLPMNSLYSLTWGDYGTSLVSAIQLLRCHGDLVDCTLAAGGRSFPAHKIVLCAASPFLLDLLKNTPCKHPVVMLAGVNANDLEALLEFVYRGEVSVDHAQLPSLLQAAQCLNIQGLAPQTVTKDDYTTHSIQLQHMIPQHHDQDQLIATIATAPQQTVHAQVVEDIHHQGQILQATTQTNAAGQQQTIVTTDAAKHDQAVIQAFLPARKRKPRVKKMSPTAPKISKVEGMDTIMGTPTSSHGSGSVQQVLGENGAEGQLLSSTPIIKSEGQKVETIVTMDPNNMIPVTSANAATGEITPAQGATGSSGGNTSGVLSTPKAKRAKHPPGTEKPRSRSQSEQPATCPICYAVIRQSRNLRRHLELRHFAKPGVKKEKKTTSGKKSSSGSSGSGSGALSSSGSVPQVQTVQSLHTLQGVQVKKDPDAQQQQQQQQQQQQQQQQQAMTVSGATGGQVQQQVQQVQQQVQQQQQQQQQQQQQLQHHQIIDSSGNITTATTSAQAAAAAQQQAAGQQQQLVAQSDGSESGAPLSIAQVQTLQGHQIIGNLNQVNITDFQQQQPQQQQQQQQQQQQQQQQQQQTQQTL
Assay: co-IP; 100 ug nuclear extract of 0-12 h Drosophila embryos incubated with anti-GAF antibodies on protein A beads or beads alone (Mock), in the presence or absence of DNaseI (0.5 U); washed with HEMG-500 plus 0.1% Nonidet P-40; co-IP'd proteins detected by Western blotting

binding: binds
B1: Su(z)12 (protein, UniProt Q9NJG9 1-900)
chain: MAPAKKREKDSNPDGSAANGIIGLTHGAPDASNAGSTVPPTAEGQVKLNGHQQEQELFLQAFEKPTQIYRYLRNRHETNPIFLNRTLSYMKERMSRNNKKRISFQVNSMLESITQKSEAVSQNYLHVIYDSLHEKLPARLDNESGEDLLQEQLLCEAGESVSVETTLYKITRSKRKDSTLDFQELLSKCSQIVYNPKDRVGEHATISIPLQTMRPMGEQHTLYKLLFRIKVLSPSTCNDENAETPPNKRSRPNEKMFGSELILYEKSSGFITEGEYEAMLQPLNSTSIKSFSPKKCTWETMPDSYIPLSLTYDVYQQSPMLKFHLTLSNEQLPEMISAPELQRYVQHLDAVAEMNYNNNNYNNNNNCSGLKNGSGGGNSTVCKTTPEHIQIVYNFMYSNNTRQQTEYTQELNCPWCGLDCLRLYALLKHLKLCHARFNFTYQPAGSGARIDVTINDAYDGSYAGSPYDLAGPSGSSFARTCGPVRRTSVTSLMVCRPRRQKTCLDEFLELDEDEISNQRSYITGHNRLYHHTETCLPVHPKELDIDSEGESDPLWLRQKTIQMIDEFSDVNEGEKELMKLWNLHVMRHGFVGDCQLPIACEMFLDAKGTEIVRKNLYRNFILHMCSLFDYGLIAAETVYKTVQKLQGLLSKYAAGQELMQRQREEQLKYWLDVGMHKKQEDPKTLKSPQKPAPPADQASTSSASTSGSGSGSSSMQPPKRMPAHLKRGSAASSPGVQSKGTENGTNGSNSSSSNSKNVAKKSADQPLSTLANTRERRSEYGQKRNVSGSRLAATPASKRKLSSKDNTVLNKRQRYSDGSPGTGIGNGHGGGSGSGANRNKSNNHSLPATSNNASSSSSNSKRAIARRRSTSERTKASGSTGGGAGGVRTRLSVPAKYERR
